Results as given in PubChem BioAssay AID686971 (National Center for Advancing Translational Sciences (NCATS), 2013).
Screen size: about 360,000 compounds; about 7,500 (2.1%) were called active. These results got no clear call from the source, so the numbers are uncertain. The call rests on the fitted dose curve; in most records, active means well fitted cell-killing curve with a large enough effect; inconclusive means small, poorly fitted or top-dose-only effect, or effect the other way, or another doubt; inactive means no such curve, though single readings can be large or run the other way.

assay: qHTS for induction of synthetic lethality in tumor cells producing 2HG: qHTS for the HT-1080-IDH1KD cell line; settings: HT-1080 IDH1 knockdown viability, ATP luminescence, 48 h; at 46.1 µM (top of the series);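 further: 0% = DMSO wells and -100% = cell-free medium wells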

Structure (SMILES)	activity, negative = toxicity
Cc1cc(C)cc(N(C(=O)c2ccccc2)C2CCN(C(=O)OC(C)(C)C)CC2)c1	inconclusive: -30.9%
